Source: PubChem BioAssay AID540276 (National Center for Advancing Translational Sciences (NCATS), 2011)
Values joined by “and” are separate entries in the source; they are usually repeats but may differ in a detail not shown here. Equal entries are not always repeated. The whole screen tested about 300,000 compounds, of which about 5,400 (1.8%) were called active. The shares of active, inactive and inconclusive entries below differ from those in the screen. Calls come from the whole dose curve; tested in HEK293 cells. A potency beside an inconclusive call is a rough fit, not a confirmed value.

assay: qHTS for inhibitors of binding or entry into cells for Marburg Virus; conditions: Marburg virus pseudotyped entry inhibition, cell reporter; activity change, negative = inhibition: at 37.8 µM (top of the series) unless noted
% is set by controls: 0 for no effect and ±100 for the full control effect; potency is the fitted concentration of half-maximal effect.

Row | Compound | Potency | activity change, negative = inhibition
1 | Cc1ccc2cc(CN(Cc3ccco3)S(=O)(=O)c3c(C)ccc4nsnc34)c(=O)[nH]c2c1 | inconclusive: 23.1 µM [inhibitor, partial curve, poor fit] | 
2 | Nc1nonc1-n1nnc(C(=O)c2ccccc2)c1-c1ccccc1 | inconclusive: 3.16 µM [activator, single point] | 
3 | CCCCCC1CC(CC(=O)Nc2nncs2)C(=O)O1 (stereo unspecified) |  | inactive: -2.21%
4 | CC1CCN(C2=C(NS(=O)(=O)c3ccccc3)C(=O)c3ccccc3C2=O)CC1 | inconclusive: 14.1 µM [inhibitor, single point] | 
5 | CC1CCc2c(sc(NC(=O)c3cc4nc(-c5ccc(Cl)cc5)cc(C(F)(F)F)n4n3)c2C#N)C1 (stereo unspecified) |  | inactive: -0.315% [at 46.1 µM]
6 | CCC(C)C1=CC(=Nc2c(C)n(C)n(-c3ccccc3)c2=O)C=C(C(C)CC)C1=O (stereo unspecified) | inconclusive: 5.62 µM [inhibitor, single point] | 
7 | CC(C)(CO)Nc1ncnc2onc(-c3ccc(F)cc3)c12 | inconclusive: 0.562 µM [inhibitor, full curve, poor fit] | 
8 | CNC(=O)c1cccc(NC(=O)c2ccccc2OCc2ccccc2)c1 |  | inactive: -25.7% [at 46.1 µM]
9 | Cc1cc(C)n2nc(SCCOc3ccccc3)nc2n1 | inconclusive: 1.12 µM [activator, single point] | 
10 | CCN(Cc1ccccc1)S(=O)(=O)c1ccc(C(=O)N2CCN(c3nc4ccccc4s3)CC2)cc1 | inconclusive: 20.6 µM [activator, single point] | 
11 | CCc1cccc(NC(=O)CN(C)S(=O)(=O)c2cccc3cccnc23)c1 | inconclusive: 35.5 µM [inhibitor, single point] | 
12 | CCN(c1ccc2c(c1)OCO2)S(=O)(=O)c1cc(Br)cc2c1N(C(C)=O)CC2 |  | inactive: 8.99%
13 | Cc1ccc(/C=C/c2nc3ccccc3[nH]2)o1 | inconclusive: 35.5 µM [inhibitor, single point] | 
14 | COC(=O)c1ccc(CSc2nc(N3CCOCC3)c3c(c2C#N)CC(C)(C)OC3)o1 | inactive | 
15 | COCCn1c(C)cc(C(=O)COc2cccnc2[N+](=O)[O-])c1C |  | inactive: 23.9% [at 46.1 µM]
16 | O/N=C(/c1ccccc1)c1cc2cc(Br)cc(Br)c2o1 | inconclusive: 35.5 µM [inhibitor, single point] | 
17 | O=C(CSc1ccc2nnc(-c3cccnc3)n2n1)c1ccccc1 | inconclusive: 2.51 µM [activator, partial curve, poor fit] | 
18 | Cc1ccc(C(=O)OCC(=O)Nc2nc(-c3ccccc3)cs2)cc1NC(=O)c1ccco1 | inconclusive: 14.1 µM [inhibitor, single point] | 
19 | Cc1ccccc1Oc1cc(NC(=O)CCCn2nc(C)c([N+](=O)[O-])c2C)cc([N+](=O)[O-])c1 | inconclusive: 28.2 µM [inhibitor, single point] | 
20 | COc1ccc(OC)c(C(=O)c2coc3ccc(OC(C)=O)cc23)c1 | inconclusive: 11.2 µM [inhibitor, partial curve, poor fit] | 
21 | Cc1cs/c(=N/C(=S)Nc2ccccc2)n1C | inconclusive: 35.5 µM [inhibitor, single point] | 
22 | CCOC(=O)CN(Cc1sccc1C)C(=O)Nc1cccc(OC)c1 | inconclusive: 15.8 µM [activator, single point] | 

Row | Compound | Potency | activity change, negative = inhibition
23 | FC(F)C(F)(F)C(F)(F)C(F)(F)c1cc(-c2ccccc2)n[nH]1 | inconclusive: 25.9 µM [inhibitor, partial curve, poor fit] | 
24 | CCCCC(=NCCc1c(C)[nH]c2ccccc12)C1=C(O)CC(c2ccccc2)CC1=O (stereo unspecified) | inconclusive: 8.91 µM [inhibitor, partial curve, poor fit] | 
25 | O=C(CN1C(=O)CCC1=O)Nc1nc(-c2ccc(Cl)s2)cs1 | inactive | 
26 | Cn1c(=O)c2c(ncn2Cc2ccc(Cl)c(Cl)c2)n(C)c1=O | inconclusive: 16.4 µM [inhibitor, partial curve] | 
27 | COC(=O)c1ccccc1NC(=S)NC(=O)c1ccccc1F | inconclusive: 0.501 µM [activator, full curve, poor fit] | 
28 | Cc1cc(C)c2sc(N(CCCN(C)C)C(=O)COc3ccc(Cl)cc3)nc2c1 | inconclusive: 11.2 µM [inhibitor, partial curve, poor fit] | 
29 | CCOc1ccc(NS(=O)(=O)c2ccc3[nH]cc(C(=O)NCC4CCCO4)c(=O)c3c2)cc1 (stereo unspecified) | inactive | 
30 | CC(C)(C)c1cc(NC(=O)c2ccco2)n(-c2ccccc2)n1 |  | inactive: 0.292% [at 46.1 µM]
31 | O=C(NCCO)C(=O)NCC1OCCCN1S(=O)(=O)c1cccs1 (stereo unspecified) | inconclusive: 1 µM [activator, full curve] | 
32 | CC(=O)c1ccc(N2CCN(C(=O)c3cc4c(s3)CCCC4)CC2)cc1 | inconclusive: 8.91 µM [activator, partial curve] | 
33 | Nc1[nH]nc2nc3ccccc3cc12 | inconclusive: 3.16 µM [activator, partial curve, poor fit] | 
34 | Cc1ccc(OCCn2cc(C=O)c3ccccc32)cc1 | inconclusive: 35.5 µM [inhibitor, single point] | 
35 | Cc1ccc(C2=NN(C(=O)CCl)C(c3ccco3)C2)o1 (stereo unspecified) | inconclusive: 10 µM [inhibitor, partial curve, poor fit] | 
36 | COc1ccc([N+](=O)[O-])cc1NC(=O)C(C)NNC(=O)c1cccc([N+](=O)[O-])c1 (stereo unspecified) | inconclusive: 35.5 µM [inhibitor, single point] | 
37 | COc1ccc(-c2nn(-c3ccccc3)cc2/C=N/N2C(=O)CSC2=S)cc1 | inconclusive: 29.1 µM [inhibitor, single point] | 
38 | C[C@@H]1CC[C@H]2C(=O)O[C@@H](COc3ccc(C(C)(C)C)cc3)CN2[C@@H]1c1ccc(Br)cc1 | inconclusive: 6.68 µM [inhibitor, single point] | 
39 | Cc1ccc(NC(=O)CSc2nc(=O)cc(N)n2CCc2ccccc2)cc1 | inconclusive: 17.8 µM [inhibitor, single point] | 
40 | CCOc1cc(/C=N/NC(=O)CCn2nnc3ccccc32)ccc1O | inconclusive: 2.82 µM [inhibitor, single point] | 
41 | CN1/C(=C\C(=O)c2cccnc2)C(C)(C)c2ccccc21 |  | inactive: 7.16%
42 | CCc1ccccc1NC(=O)C1CCCN(c2cnccn2)C1 (stereo unspecified) | inconclusive: 35.5 µM [activator, single point] | 
43 | Cc1ccc(S(=O)(=O)NCCNC(C)c2ccc(Br)cc2)cc1 (stereo unspecified) | inconclusive: 15.8 µM [inhibitor, single point] | 
44 | N=c1n(CCOc2ccccc2)c2ccccc2n1CCN1CCOCC1 | inconclusive: 35.5 µM [inhibitor, single point] | 

Row | Compound | Potency | activity change, negative = inhibition
45 | Cc1ccc(/C=N/N2C(=O)c3ccccc3NC2c2ccc(C)cc2)cc1 (stereo unspecified) | inconclusive: 35.5 µM [inhibitor, single point] | 
46 | CC1(C)CC(=O)C(/C=N/n2cnc3ccccc3c2=O)=C(O)C1 |  | inactive: 13.2%
47 | Cc1sc2nc(CSCC(=O)Nc3ccc(OC(F)F)cc3)[nH]c(=O)c2c1C | inconclusive: 25.1 µM [inhibitor, single point] | 
48 | O=C1NC2(CCCCC2)C(=O)N1Cc1ccc([N+](=O)[O-])cc1 | inconclusive: 0.316 µM [activator, full curve, poor fit] | 
49 | CCc1ccc(Oc2c(C(F)(F)F)oc3c(CN4CCCC(C)C4)c(O)ccc3c2=O)cc1 (stereo unspecified) |  | inactive: -4.73% [at 46.1 µM]
50 | Cc1ccc(CNC(=O)CCc2c(C)[nH]c(=O)c(C#N)c2C)cc1 | inconclusive: 6.31 µM [inhibitor, single point] | 
51 | CCCCOc1ccccc1NC(=O)c1scc2c1OCCO2 | inconclusive: 2.51 µM [inhibitor, partial curve, poor fit] | 
52 | CCc1ccc(NC(=O)c2nn(-c3ccc(OC)cc3)c(=O)c3c2c2ccccc2n3C)cc1 |  | inactive: -5.33% [at 46.1 µM]
53 | CCCCOc1ccc(Cn2c(=O)sc3ccccc32)cc1 |  | inactive: -18.5% [at 46.1 µM]
54 | OCCCc1cn(-c2ccccc2)c2ccccc12 |  | inactive: 11.5% [at 46.1 µM]
55 | Cc1nn(-c2ccccc2)c(C)c1/C=C/C(=O)OCC(=O)N(C)C1CCS(=O)(=O)C1 (stereo unspecified) |  | inactive: 48.9%
56 | COc1ccc(/C=N/Nc2cc(C)nc3ccc(Br)cc23)cc1 | active: 4.47 µM | 
57 | O=C1c2ccccc2-c2onc3c(NCCO)cc(NC4CCCCC4)c1c23 |  | inactive: -42.6% [at 46.1 µM]
58 | COc1ccccc1NS(=O)(=O)c1ccc(C(=O)N2CCN(c3ccccn3)CC2)cc1 | inconclusive: 12.6 µM [inhibitor, partial curve, poor fit] | 
59 | COc1ccc(C2N3CC4(C)CN2CC(c2ccccc2)(C3)C4=O)cc1OC (stereo unspecified) | inconclusive: 14.1 µM [inhibitor, partial curve, poor fit] | 
60 | CCCCCCCCCCCCCCCCCCNC(=O)OCC(COP(=O)([O-])OCC[n+]1ccsc1)OC (stereo unspecified) | inactive and inconclusive: 5.01 µM [inhibitor, full curve] | 
61 | O=C(CSc1c2c(nc3cc(Cl)ccc13)CCCC2)NCc1ccccc1Cl | inconclusive: 35.5 µM [inhibitor, single point] | 
62 | CCCN(CCC)CCCNC(=O)c1cc2c(=O)[nH]c3ccccc3c2n1C | inconclusive: 14.1 µM [inhibitor, single point] | 
63 | CCCNC(=O)C(=O)N/N=C/c1ccc(OCc2ccccc2)cc1 |  | inactive: 9.03%
64 | CN(C)CCCN=Cc1c(-c2ccccc2)[nH]n(-c2nc3ccccc3s2)c1=O | inconclusive: 32.6 µM [inhibitor, single point] | 
65 | Cc1cc(NC(=O)c2ccc(NC(=O)C(C)C)cc2)no1 | inconclusive: 25.1 µM [activator, single point] | 
66 | Cc1cc(F)ccc1S(=O)(=O)Nc1ccccc1C(=O)Nc1ccccc1N1CCOCC1 | inconclusive: 12.6 µM [inhibitor, partial curve, poor fit] | 

Some values from the list:
Under Potency, `Cc1cc(NC(=O)c2ccc(NC(=O)C(C)C)cc2)no1` is listed with inconclusive: 25.1 µM [activator, single point]
Under Potency, `Cc1cc(F)ccc1S(=O)(=O)Nc1ccccc1C(=O)Nc1ccccc1N1CCOCC1` is listed with inconclusive: 12.6 µM [inhibitor, partial curve, poor fit]
